{
  "source": "paper PMC6052341",
  "about": "“Phosphorylation of FtsZ and FtsA by a DNA Damage-Responsive Ser/Thr Protein Kinase Affects Their Functional Interactions in Deinococcus radiodurans” (mSphere, 2018)",
  "binders": {"B1": {"name": "FtsA of Deinococcus radiodurans, purified recombinant (natural protein, UniProt Q9RWN6 1-517, looked up)", "chain": "MRENSIIVGLDIGTTKITTVIGEVAPDGTIDIIGEGSVPSEGMKRGSVINLERATQAIKQSLHAAERVSGVRAWNVFVSVGGNHTKAMTSHGLAAIRRQQEISPPDVERAIENARAVPLDPSLEILHTIPQEYVVDGQEGIKNPVGMHGVRLEVDVHIVAGSAGPLLNLRRCVQEAGLQIEGFVLHSLASGLATLDHSEQNQTTVVVDMGGGTTDIGVFKRGNLAHSASIPIGGDHVTADLAQILKIPMEEAEKVKRHYGAAIPELADQELTLEITTASGATHAISAYELSRVIRPRVSEIYGLIRDEIDQALGPVELVAQSVVLTGGGAQLPGAVDLARERFRLPTRLGRPRGIHGLSDIVGDPAHACSVGMVLYGITQDGRVPSGLDDGGDPAGYTEYAGRHDQGYPQGGYPAPGYLTAPTGGTHVAPQGTPGSYPGPGYVVSGGQSQGQPYPPMPNTGSHSAGVPSMSGPVIGGQVVGVDPHAQVLVDGQPQRPPSGPKVSLMDRVRSLFRDWF"}},
  "key": {"[1]": {"target": "T1, FtsZ-C25, FtsZ of Deinococcus radiodurans fused to the T25 domain of CyaA, in E. coli BTH101 (Deinococcus radiodurans) (UniProt Q9RWN5)", "T1 sequence": "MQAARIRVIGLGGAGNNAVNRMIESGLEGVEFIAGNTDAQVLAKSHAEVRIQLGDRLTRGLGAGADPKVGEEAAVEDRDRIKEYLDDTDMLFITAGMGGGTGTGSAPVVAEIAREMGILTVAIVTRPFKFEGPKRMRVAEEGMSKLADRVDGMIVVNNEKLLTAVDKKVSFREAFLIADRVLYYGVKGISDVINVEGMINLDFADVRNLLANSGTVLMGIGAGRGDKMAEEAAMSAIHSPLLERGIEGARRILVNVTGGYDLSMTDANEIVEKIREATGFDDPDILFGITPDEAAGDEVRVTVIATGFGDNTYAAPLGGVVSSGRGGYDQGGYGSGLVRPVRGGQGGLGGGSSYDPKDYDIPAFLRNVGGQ", "assay": "co-IP; cell-free extract (RIPA buffer) of E. coli BTH101 coexpressing FtsA-C18 and FtsZ-C25 with RqkA (pVHSRqk); precipitated with T25 antibodies, blotted with T18 antibodies"}, "[2]": {"target": "T1, FtsZ-C25, FtsZ of Deinococcus radiodurans fused to the T25 domain of CyaA, in E. coli BTH101 (Deinococcus radiodurans)", "assay": "two-hybrid; bacterial two-hybrid (BACTH) in E. coli BTH101 at 30°C, FtsA-C18 and FtsZ-C25, with RqkA (pVHSRqk) or vector; white-blue colonies and β-galactosidase activity in liquid culture"}, "[3]": {"target": "T1, FtsZ-C25, FtsZ of Deinococcus radiodurans fused to the T25 domain of CyaA, in E. coli BTH101 (Deinococcus radiodurans)", "assay": "co-IP; cell-free extract (RIPA buffer) of E. coli BTH101 coexpressing FtsA-C18 and FtsZ-C25 with the vector pVHS559 (RqkA absent); precipitated with T25 antibodies, blotted with T18 antibodies"}},
  "note": "Results are given in words; binding and its absence hold for the method and conditions named. For part of these data: In cells and extracts the contact can be indirect. Some entries that bind do so weakly or less than the wild type. Tags and fused reporters may be left off the sequences shown.",
  "data": [
    {"binder": "B1", "values": [
      {"measurement": "binding", "setting": "[1]", "value": "binds weakly"},
      {"measurement": "binding", "setting": "[2]", "value": "binds"},
      {"measurement": "binding", "setting": "[3]", "value": "binds"}
    ]}
  ]
}
